Laboratory results published in PMC8201255, “A Combined Experimental and Theoretical Study of Nitrofuran Antibiotics: Crystal Structures, DFT Computations, Sublimation and Solution Thermodynamics” (Molecules, 2021).
Where two headings read alike, the source gives them in different places.

What was measured:
[1] = Description: All the solubility experiments were carried out using the analytical isothermal shake-flask method. […] In brief, an excess amount of API was added to triplicate Pyrex glass tubes containing the respective dissolution media. […] The concentrations of the dissolved APIs were measured spectrophotometrically using a Cary 50 UV-vis spectrophotometer (Varian, Australia) with an accuracy of 2–4%.
Conversion of molarity to mole fraction concentration scale was produced using Equation (10):(10) X2=M2S2/S2(M2−M1)+1000ρ where S2 is molarity of API (mol·L^−1), M1 and M2 are the molar masses of solvent and solute, respectively, and ρ (g·cm^−3) is the density of the pure solvents. The mole fraction solubilities for buffer solutions were calculated taking into account the buffer compositions. Densities of buffer solutions (pH 2.0 and 7.4) were measured and published early.
(§1) The results are stated as the average of at least three replicated experiments.

[2] = remark: listed apart in the source
Description: Details of the technique are given in the literature. In brief: a flow of the inert gas (N2) through the tube transported the saturated vapor of the sample under investigation at a constant temperature and flow rate. The sample vapor is completely condensed at some point downstream. The sample vapor pressure at this temperature was calculated from the sublimated sample amount and the volume of the inert gas used. The mass of sublimated substance was determined using a spectrophotometer method by means of spectrophotometer Cary-50 (Varian, Australia).
The equipment was calibrated with benzoic acid, as specified in earlier work of our research group.
Absolute vapor pressures for compounds are usually approximated by the Clarke–Glew equation [38].
The value of the sublimation enthalpy is calculated by the Clausius–Clayperon equation:(7) ΔcrgHm0(T)=−R⋅(∂(lnp)/∂(1/T))
The sublimation entropy at a given temperature T is calculated by the following relation:(8) ΔcrgSm0(T)=(ΔcrgHm0(T)−ΔcrgGm0(T))/T with ΔcrgGm0(T)=−RTln(p/p0) , where p0 is the standard pressure (1 × 10^5 Pa).
For experimental reasons, the sublimation data are obtained at high temperatures. However, in comparison with the effusion methods, the temperatures are much lower, which makes extrapolation to room conditions easier.
Van der Waals molecular volumes ( V^vdw ) were estimated by the program GEPOL [50] using atom radiuses proposed by Kitaigorodskii. The free molecular volume in the crystal lattice was calculated on the basis of the single crystal X-ray diffraction data:(14) V^free=V^mol−V^vdw where V^mol is the molecular volume in crystal lattice, which is estimated by the equation:(15) V^mol=V^cell/Z where V^cell is the unit cell volume and Z is the number of molecules in the unit cell.

[3] = stirring the suspension for 72 h
Excerpt: as §1

[4] = for TΔSsol0 / ΔGsol0 / ΔHsol0 / ΔSsol0: dissolution; for ςHsolv: relative fraction of solvation enthalpy; for ςTSsolv: relative fraction of solvation entropy; for TΔSsolv0 / ΔGsolv0 / ΔHsolv0 / ΔSsolv0: solvation
[5] = heating 10 K·min^−1

## O=C1OCCN1/N=C/c1ccc([N+](=O)[O-])o1 [FZL, furazolidone]
[1]; pH 2
  X2 (solubility): 3.35·10^6 mol.frac.
[1]; pH 7.4
  X2 (solubility): 3.31·10^6 mol.frac.
[2]; 298.15 K
  298.15⋅ΔcrgSm0(298.15K): 12.9 kcal/mol
  ΔcrgGm0(298.15), sublimation Gibbs energy: 17.7 kcal/mol
  ΔcrgHm0(298.15K), sublimation enthalpy: 30.57 ± 0.263 kcal/mol
  ΔcrgSm0(298.15K), sublimation entropy: 180.6 ± 4.6 J·mol^−1·K^−1
[2]; at experimental temperature T
  ΔcrgHm0(T), sublimation enthalpy: 29.16 ± 0.263 kcal/mol
[2]; enthalpy term of sublimation, 298.15 K
  ςH: 70.4%
[2]; entropy term of sublimation, 298.15 K
  ςTS: 29.6%
[2]; extrapolated to 298.15 K
  p(298.15K), saturated vapor pressure: 1.12·10^−8 Pa
[2]; free volume in the crystal lattice over van der Waals volume
  β = V^free/V^vdw: 37.5%
[3]
  hydrate formation in suspension: not found to form stable hydrates
[4]; 1-octanol, 298.15 K
  TΔSsol0: 5.19 kcal/mol
  ΔGsol0: 6.62 kcal/mol
  ΔHsol0: 11.8 ± 1.05 kcal/mol
  ΔSsol0: 72.6 ± 5.2 J·K^−1·mol^−1
  ςHsolv: 70.9%
  ςTSsolv: 29.1%
  TΔSsolv0: -7.7 kcal/mol
  ΔGsolv0: -11.1 kcal/mol
  ΔHsolv0: -18.8 kcal/mol
  ΔSsolv0: −108.0 J·K^−1·mol^−1
[4]; buffer pH 2.0, 298.15 K
  TΔSsol0: 2.51 kcal/mol
  ΔGsol0: 7.48 kcal/mol
  ΔHsol0: 9.99 ± 0.765 kcal/mol
  ΔSsol0: 35.4 ± 4.0 J·K^−1·mol^−1
  ςHsolv: 66.5%
  ςTSsolv: 33.5%
  TΔSsolv0: -10.3 kcal/mol
  ΔGsolv0: -10.2 kcal/mol
  ΔHsolv0: -20.6 kcal/mol
  ΔSsolv0: −145.2 J·K^−1·mol^−1
[4]; buffer pH 7.4, 298.15 K
  TΔSsol0: 2.75 kcal/mol
  ΔGsol0: 7.48 kcal/mol
  ΔHsol0: 10.2 ± 0.669 kcal/mol
  ΔSsol0: 38.4 ± 4.0 J·K^−1·mol^−1
  ςHsolv: 66.7%
  ςTSsolv: 33.3%
  TΔSsolv0: -10.1 kcal/mol
  ΔGsolv0: -10.2 kcal/mol
  ΔHsolv0: -20.3 kcal/mol
  ΔSsolv0: −142.2 J·K^−1·mol^−1
[5]
  thermal stability (DSC/TG curves): stable up to the start of the sample melting
